From paper PMC8989981, “Negative feedback of SNRK to circ-SNRK regulates cardiac function post-myocardial infarction” (Cell Death and Differentiation, 2021)
Results are given in words; binding and its absence hold for the method and conditions named. Binding seen in cells or lysates may run through a third protein. Binding can be weak; no strength is given. Values belong to the molecule of their own block, whether it stands above or below them.

Legend:
[1] = target: T1, SNRK (sucrose nonfermenting 1-related kinase) (rat (endogenous in NRCMs)) (UniProt Q63553); assay: co-IP; proteins of NRCMs (neonatal rat cardiomyocytes); precipitation of SNRK, NOVA1 or activated Caspase 3 and immunoblot of the partner; no co-IP method is described
T1 sequence: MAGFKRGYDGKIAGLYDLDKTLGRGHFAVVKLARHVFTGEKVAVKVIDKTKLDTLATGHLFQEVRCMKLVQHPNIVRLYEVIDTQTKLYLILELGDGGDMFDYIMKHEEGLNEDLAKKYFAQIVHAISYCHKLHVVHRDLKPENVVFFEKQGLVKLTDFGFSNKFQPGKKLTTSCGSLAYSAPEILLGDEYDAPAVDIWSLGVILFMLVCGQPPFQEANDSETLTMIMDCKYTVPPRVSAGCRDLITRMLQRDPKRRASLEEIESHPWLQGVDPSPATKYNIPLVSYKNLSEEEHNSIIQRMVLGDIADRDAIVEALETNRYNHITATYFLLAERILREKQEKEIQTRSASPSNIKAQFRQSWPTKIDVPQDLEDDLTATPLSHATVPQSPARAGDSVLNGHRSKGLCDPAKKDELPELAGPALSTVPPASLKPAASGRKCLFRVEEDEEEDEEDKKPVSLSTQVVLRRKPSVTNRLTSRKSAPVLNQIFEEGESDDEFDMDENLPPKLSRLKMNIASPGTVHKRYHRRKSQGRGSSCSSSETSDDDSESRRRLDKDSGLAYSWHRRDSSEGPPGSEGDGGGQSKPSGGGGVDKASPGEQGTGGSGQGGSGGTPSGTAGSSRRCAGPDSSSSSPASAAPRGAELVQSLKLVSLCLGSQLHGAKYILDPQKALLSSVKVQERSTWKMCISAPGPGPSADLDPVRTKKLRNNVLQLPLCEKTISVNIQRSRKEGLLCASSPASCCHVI

[2] = target: cleaved-Caspase 3 (rat (endogenous in NRCMs)); assay: as above

binding [1]: no binding
Molecule: activated Caspase 6 (rat (endogenous in NRCMs)) (enzyme)

binding [1]: binds
Molecule: cleaved-Caspase 3 (rat (endogenous in NRCMs)) (enzyme)

binding [1]: no binding
Molecule: activated Caspase 7 (rat (endogenous in NRCMs)) (enzyme)

binding [2]: binds
B1: SNRK (sucrose nonfermenting 1-related kinase) (protein, UniProt Q63553 1-746)
chain: T1 sequence
